Measured data: PubChem BioAssay AID1053208 (Peter MacCallum Cancer Centre, 2014)
The whole screen tested about 17,000 reagents; shown is a part drawn at random. 788 of all reagents (4.7%) were called active. 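Calls rest on z-score classes alone; an extra cut-off of viability at most 70% of control was not applied to them.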 Some reagents were tested in more than one well and are listed for each. Further read-outs or replicates are left out here.

Aim: 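Synthetic lethal interactions between gene loss and doxorubicin in osteosarcoma cells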 (primary screen)
Cell system: mouse osteosarcoma cells, early-passage culture from an engineered mouse model of fibroblastic bone tumour
Reagent: siRNA pool against mouse genes, 40 nM
Time to read-out: about 120 h (48 h before drug, then 72 h with drug)
Challenge: doxorubicin 100 nM for 72 h, roughly 30-40% inhibitory dose
Measured: 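Viability read as ATP luminescence after 72 h of 100 nM doxorubicin or none, duplicate wells averaged, scaled to non-targeting siRNA, then expressed as robust z-scores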
Reading the numbers: viability z-score with doxorubicin: higher = more viable cells under doxorubicin; viability z-score without drug: higher = more viable cells with knock-down alone
Hit rule: 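Called active if knock-down leaves viability unchanged without drug (z within -2 to 2) but lowers it with doxorubicin (z at or under -2)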

no.	Gene	combined z-score class	viability z-score with doxorubicin	viability z-score without drug	activity call
1	Ints6	no change with or without drug	-0.45	-0.51	inactive
2	Lpar1	no change with or without drug	-0.67	-1.52	inactive
3	Cdc23	low cell count with doxorubicin only	-3.15	-0.34	active
4	Piga	no change with or without drug	-0.45	0.17	inactive
5	Rps27a	low cell count with and without drug	-7.87	-7.25	inactive
6	Ly6g6g	no change with or without drug	-0.9	-0.51	inactive
7	Or2t6	no change with or without drug	0.45	1.69	inactive
8	Amd2	no change with or without drug	0.22	0.34	inactive
9	Slco6b1	no change with or without drug	0.56	0.51	inactive
10	Vmn1r203	high cell count without drug only	1.01	2.19	inactive
11	Bcl10	no change with or without drug	0.56	-0.34	inactive
12	Actn2	no change with or without drug	-0.45	0.17	inactive
13	Oca2	no change with or without drug	0.45	-0.84	inactive
14	Tm9sf3	no change with or without drug	0.11	0.51	inactive
15	Ppm1h	no change with or without drug	-1.12	-0.51	inactive
16	Mid1	no change with or without drug	-0.9	0.34	inactive
17	Ccl21a	no change with or without drug	-1.12	-0.17	inactive
18	Tpi1	no change with or without drug	0.45	0.51	inactive
19	Slc25a28	no change with or without drug	0	1.35	inactive
20	Nars2	no change with or without drug	-0.34	-0.17	inactive

Reformatted: entries from further up.
| Gene | combined z-score class | viability z-score with doxorubicin | viability z-score without drug | activity call |
| --- | --- | --- | --- | --- |
| Amd2 | no change with or without drug | 0.22 | 0.34 | inactive |
| Slco6b1 | no change with or without drug | 0.56 | 0.51 | inactive |
| Vmn1r203 | high cell count without drug only | 1.01 | 2.19 | inactive |
| Bcl10 | no change with or without drug | 0.56 | -0.34 | inactive |
| Actn2 | no change with or without drug | -0.45 | 0.17 | inactive |
| Oca2 | no change with or without drug | 0.45 | -0.84 | inactive |

The results go on.
no.	Gene	combined z-score class	viability z-score with doxorubicin	viability z-score without drug	activity call
21	Ranbp1	no change with or without drug	0.45	0.34	inactive
22	Nxpe2	no change with or without drug	0.45	0.34	inactive
23	Pctp	high cell count with and without drug	2.92	3.2	inactive
24	Nrp1	no change with or without drug	0	-0.51	inactive
25	Mrgprx1	no change with or without drug	-0.34	-0.17	inactive
26	Mrgprx1	no change with or without drug	-0.56	-0.84	inactive
27	Sesn2	no change with or without drug	0.45	0.67	inactive
28	Tmbim7	no change with or without drug	0.22	-0.17	inactive
29	Or8g26	low cell count with doxorubicin only	-2.14	-1.01	active
30	Or3a1c	no change with or without drug	0.79	0.84	inactive
31	Sftpb	no change with or without drug	1.01	-0.34	inactive
32	Rhod	no change with or without drug	-0.45	0.17	inactive
33	Mtss1	no change with or without drug	1.35	0.51	inactive
34	Gart	no change with or without drug	1.35	-0.17	inactive
35	Polr2h	low cell count with and without drug	-6.63	-2.19	inactive
36	Nat10	low cell count without drug only	-1.46	-7.59	inactive
37	Dcaf8l	low cell count with doxorubicin only	-2.81	-1.18	active
38	Ccdc34	no change with or without drug	0	-1.18	inactive
39	Hmgn1	no change with or without drug	0.34	-1.18	inactive
40	Vmn1r36	no change with or without drug	-0.22	1.18	inactive
41	Arhgef7	no change with or without drug	-1.12	0	inactive
42	Papln	no change with or without drug	-0.67	-0.51	inactive
43	Vmn1r179	no change with or without drug	-1.69	-1.18	inactive
44	Rtp4	no change with or without drug	0.34	0.67	inactive
45	Cd276	no change with or without drug	1.35	1.52	inactive
46	Camk2b	no change with or without drug	-0.67	-1.85	inactive
47	Tmem45a	no change with or without drug	1.12	0.51	inactive
48	Tnrc6b	no change with or without drug	-0.67	0.84	inactive
49	Cldn19	low cell count with and without drug	-2.59	-2.53	inactive
50	Tec	no change with or without drug	1.12	0.17	inactive
